# Test results from PubChem BioAssay AID504467 (National Center for Advancing Translational Sciences (NCATS), 2011).
# In all, about 330,000 compounds went through this assay and about 7,700 (2.3%) were called active. This list was built around the results that the source calls inconclusive (neither active nor inactive); the mix of calls is not that of the screen. Calls follow the shape of the dose curve; as a rule, active = well fitted inhibition curve with a large enough effect; inconclusive = small, poorly fitted or top-dose-only effect, or effect the other way; inactive = flat fitted curve, though single readings scatter. A potency beside an inconclusive call is a rough fit, not a confirmed value.
# Assay: qHTS screen for small molecules that inhibit ELG1-dependent DNA repair in human embryonic kidney (HEK293T) cells expressing luciferase-tagged ELG1; also: nearly all actives have a fitted effect of over 55% in size
# Details: HEK293T ELG1-luciferase reporter, luminescence, 16 h, DNA damage induced by 5-fluorouridine; series mostly up to 46.1 µM
# Procedure, shortened: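 Step one: seed 2,000 cells per well. Step two: pin-transfer compound or DMSO alongside 5-fluorouridine. Step three: incubate 16 hr, 37 °C, 5% CO2. Step four: add ONE-Glo, wait 30 min, read luminescence.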
# Potency is read from the fitted curve at half-maximal effect.
row,SMILES,Potency
1,CS(=O)(=O)N1CCN(C(=O)c2cc(-c3cccs3)nc3ccccc23)CC1,active: 16.4 µM
2,O=[N+]([O-])C(=C1SCCS1)C(=C(Cl)Cl)N1CCCCC1,inactive
3,C=C(C)C(=O)Nc1cccc(C2=NOC3(C2)C[C@H](C(N)=O)N(C(=O)c2ccccc2C(=O)c2ccccc2)C3)c1 (some centres not stated),"inconclusive: 20.6 µM [inhibitor, single point]"
4,CCc1sc2nc(SCC(=O)Nc3cc(C)on3)n(-c3cccc(OC)c3)c(=O)c2c1C,"inconclusive: 18.4 µM [activator, single point]"
5,CCC1Nc2ncnc(N3CCCCC3)c2N(Cc2ccc(C)cc2)C1=O (configuration not stated),"inconclusive: 16.4 µM [activator, partial curve, poor fit]"
6,O=C(c1ccc(Cl)s1)N(Cc1nnc(-c2ccccc2Cl)o1)C1CC1,"inconclusive: 25.9 µM [activator, single point]"
7,O=C(NN=C1CCCCCCCCCCC1)c1cccnc1,inactive
8,CCc1c(C(=O)Nc2ccc(OC)cc2)[nH]c(C)c1C(C)=O,"inconclusive: 3.66 µM [activator, single point]"
9,CC(=O)Oc1ccc(-c2cccc(C(=O)NCCCO)c2)cc1,"inconclusive: 23.1 µM [activator, single point]"
10,O=[N+]([O-])c1cc(Cl)ccc1N1CCN(c2cccc(C(F)(F)F)c2)CC1,inactive
11,O=C(NCC(=O)N1CCN(Cc2c(F)cccc2Cl)CC1)c1cccc(Cl)c1,inactive
12,Cn1c(SCC(=O)N2CCN(c3ccccc3)CC2)nnc1-c1cc2ccccc2o1,active: 13 µM
13,CC(C)(C)c1csc(NC(=O)Cc2cccs2)n1,inactive
14,Cc1ccsc1/C=N/NC(=O)C(=O)NCC(C)C,"inconclusive: 20.6 µM [activator, partial curve]"
15,CCc1nnc(NC(=O)C2CCC(CNc3c(N4CCCCC4)c(=O)c3=O)CC2)s1 (configuration not stated),"inconclusive: 2.91 µM [inhibitor, full curve, poor fit]"
16,O=C1N(c2ccccc2C(F)(F)F)O[C@]1(c1ccccc1)C1CCCCC1,"inconclusive: 25.9 µM [inhibitor, single point]"
17,COc1cccc(CC(CC(=O)O)C(=O)Nc2cc(C)ccc2C)c1 (configuration not stated),inactive
18,Cc1ccc(Sc2ncnc3onc(C)c23)cc1,inactive
19,CC1CCCN(C(=O)C(=O)Nc2ccc3nc4n(c(=O)c3c2)CCCCC4)C1 (configuration not stated),inactive
20,O=C(c1ccc(Cl)c([N+](=O)[O-])c1)N(Cc1ccco1)C1CCS(=O)(=O)C1 (configuration not stated),"inconclusive: 13 µM [activator, partial curve]"
21,C=CC[C@H](CC(=O)N(CCO)Cc1ccccc1)C(=O)N[C@H](COC(=O)[C@@H](CC=C)Cc1ccc(F)cc1)Cc1ccccc1,active: 20.6 µM
22,Fc1ccc(CSc2nnc(-c3ccco3)o2)cc1,"inconclusive: 18.3 µM [activator, partial curve]"
23,O=C(CSc1nc2ccccc2nc1N1CCOCC1)N1CCN(c2ccccc2)CC1,"inconclusive: 23.1 µM [inhibitor, single point]"
24,O=C(CSc1ncnc2c1cnn2CCO)Nc1cccc(C(F)(F)F)c1,"inconclusive: 14.6 µM [inhibitor, partial curve]"

row,SMILES,Potency
1,CC1(C)CC(=O)C(C=Nc2ccc(N)cc2)=C(O)C1,inactive
2,CC(NC(=O)C(=O)NCCN1CCN(C(=O)c2ccc([N+](=O)[O-])cc2)CC1)c1ccccc1 (configuration not stated),"inconclusive: 29.1 µM [inhibitor, single point]"
3,CN(C)C(=O)CCc1ccc2c3c([nH]c2c1)[C@]1(CCC2CCCC2)[C@@H](C(=O)N2CCOCC2)C[C@H](CC(=O)NCc2cccc(C(F)(F)F)c2)C(=O)N1CC3,"inconclusive: 29.1 µM [inhibitor, single point]"
4,Cc1cccc(CN2CCC(CNC(=O)Cn3ncc4c([nH]c5ccccc54)c3=O)CC2)c1,inactive
5,CC(C)(C)SCCNC(=O)c1ccccc1,"inconclusive: 20.6 µM [activator, partial curve]"
6,COc1ccccc1CCNC(=O)c1cccc(S(=O)(=O)N2CCc3ccccc3C2)c1,inactive
7,O=[N+]([O-])c1ccc(S(=O)(=O)Nc2nc(-c3ccccc3)cs2)cc1,inactive
8,Cc1ccc(C(=O)Nc2nn(C)c3cccc(F)c23)cc1,"inconclusive: 29.1 µM [inhibitor, single point]"
9,COC(=O)c1ccccc1NC(=O)C1CCC(=O)N1S(=O)(=O)c1ccc(C)cc1 (configuration not stated),inactive
10,COCCn1c(CN2CCN(c3cccc(Cl)c3)CC2)nc2c1c(=O)n(C)c(=O)n2C,active: 14.6 µM
11,COc1ccc(-c2cn(CCc3c[nH]c4ccccc34)nn2)cc1,inactive
12,O=C(NCc1cccs1)C1CCCN1C(=O)Nc1ccc(F)cc1 (configuration not stated),inactive
13,CN(c1ccccc1)S(=O)(=O)c1cccc(C(=O)NCc2ccccc2CN2CCCC2)c1,inactive
14,COc1ccc(CCNC(=O)c2ccc3c(c2)N(Cc2ccc(F)cc2)CCS3)c(OC)c1,inactive
15,CC(C)CCn1cnc2c(c1=O)c1nc3ccccc3nc1n2Cc1ccc2c(c1)OCO2,"inconclusive: 17.8 µM [activator, single point]"
16,CCN1C(=O)[C@H]2[C@H]3CN=C(SCc4ccc(C(=O)OC)cc4)N3[C@@](Cc3ccccc3)(C(=O)OC)[C@H]2C1=O,"inconclusive: 18.3 µM [inhibitor, single point]"
17,COc1cccc(N2C(=O)Nc3ccc(Br)cc3C2(O)C(=O)NCCCN(C)C)c1 (configuration not stated),inactive
18,COc1ccc2c3n([n+]([O-])c2c1)CCN=C3c1ccc(C)cc1,"inconclusive: 3.16 µM [activator, single point]"
19,Cc1oc2cc3oc(=O)c(CCC(=O)NCCC(=O)O)c(C)c3cc2c1C,inactive
20,CCCCC(C(=O)NC(C)(C)C)N(Cc1ccccc1)C(=O)c1snc(C(N)=O)c1N (configuration not stated),"inconclusive: 16.4 µM [inhibitor, partial curve, poor fit]"
21,Cn1c(NCC(O)c2ccccc2)nc2c1c(=O)n(Cc1ccc(Cl)cc1)c(=O)n2C (configuration not stated),"inconclusive: 16.4 µM [inhibitor, single point]"
22,Cc1ccnc(NC(=O)CNC(=O)c2ccccc2Br)c1,"inconclusive: 29.1 µM [activator, single point]"
23,Cc1ccc(NC(=O)c2cc(-c3cccc(O)c3)on2)cc1C,"inconclusive: 7.31 µM [activator, partial curve]"
24,C=CCn1nnnc1SCC(=O)Nc1ccc(OC)cc1,inactive

row,SMILES,Potency
1,COc1cc(/C=C/C(=O)OCC(=O)NCc2ccco2)ccc1OCC#N,"inconclusive: 25.9 µM [activator, single point]"
2,Cc1c(O)c(S(=O)(=O)c2ccccc2)c(=O)n(-c2ccccc2)c1-c1ccccc1,"inconclusive: 1.16 µM [inhibitor, single point]"
3,COc1ccc2c(c1)CC/C2=N\OC(=O)c1cccc(C)c1,"inconclusive: 4.11 µM [activator, full curve]"
4,CCOC(=O)N1CCC(N(CCN(C)C)C(=S)Nc2cccc(Cl)c2)CC1,inactive
5,COc1ccc(-c2nc(CS(=O)(=O)CC(=O)NCc3cccc(OC)c3OC)c(C)o2)cc1,"inconclusive: 23.1 µM [inhibitor, single point]"
6,Cn1c(SCC(=O)Nc2ccc3nc(SCC(=O)N4CCCC4)sc3c2)nnc1-c1ccc(N)cc1,active: 8.2 µM
7,CC(=O)Nc1ccc(N/C=C/C(=O)c2ccco2)cc1,"inconclusive: 4.11 µM [activator, full curve]"
8,COc1ccc(CNC(=O)CN2C(=O)c3ccccc3C2=O)cc1,inactive
9,COc1ccc(OC)c(NC(=O)Cc2csc(NC(=O)Nc3ccccc3OC)n2)c1,"inconclusive: 29.1 µM [inhibitor, single point]"
10,Cc1nc(CSc2ccc(Br)cc2)cs1,"inconclusive: 13 µM [activator, partial curve]"
11,O=C(COC(=O)c1ccc([N+](=O)[O-])o1)Nc1nc2ccccc2s1,inactive
12,COC(=O)[C@H]1C[C@@H]1[C@H](NC(=O)c1cc(C)on1)c1ccccc1,inactive
13,CC1(C)Cc2c(sc3c2c(=O)n(-c2ccc(Cl)cc2)c(=O)n3CC(N)=O)CO1,"inconclusive: 6.51 µM [inhibitor, single point]"
14,c1ccc(-c2cc(-c3ccccc3)on2)cc1,"inconclusive: 8.2 µM [activator, partial curve]"
15,Cn1nc(C(F)(F)F)c(C(=O)Nc2ccc(F)cc2F)c1Sc1cccc(C(F)(F)F)c1,inactive
16,COc1ccc(CCC(=O)OCC(=O)Nc2ccc3[nH]c(=O)[nH]c3c2)cc1,inactive
17,Cn1nc(C(F)(F)F)c(-c2ccc(Br)cc2)c1NC(=O)c1ccco1,inactive
18,Clc1ccc(CCNc2ncnc3c2nnn3Cc2ccccc2)cc1,inactive
19,NNC(=O)c1ccc(COc2ccc3c(c2)CCC3)cc1,"inconclusive: 20.6 µM [activator, partial curve]"
20,O=C(O)c1ccccc1C(=O)NCCc1c(C(=O)O)[nH]c2ccc(F)cc12,"inconclusive: 23.1 µM [activator, single point]"
21,COc1cccc(/C=C2\SC(=S)N(CCCC(=O)N(CCO)c3ccccc3)C2=O)c1,"inconclusive: 23.1 µM [inhibitor, partial curve]"
22,Nc1nc(NCCO)nc(N2CCCCCC2)c1[N+](=O)[O-],inactive
23,CCOC(=O)c1ccc(CNC(=O)c2cc(C(C)(C)C)oc2C)o1,inactive
24,O[C@@H]1[C@@H](O)C=C2CCN3Cc4cc5c(cc4[C@H]1C23)OCO5 (some centres not stated),"inconclusive: 3.55 µM [inhibitor, partial curve, poor fit]"

# Reformatted: 4 of the compounds above.
row	SMILES	Potency
21	COc1cccc(/C=C2\SC(=S)N(CCCC(=O)N(CCO)c3ccccc3)C2=O)c1	inconclusive: 23.1 µM [inhibitor, partial curve]
22	Nc1nc(NCCO)nc(N2CCCCCC2)c1[N+](=O)[O-]	inactive
23	CCOC(=O)c1ccc(CNC(=O)c2cc(C(C)(C)C)oc2C)o1	inactive
24	O[C@@H]1[C@@H](O)C=C2CCN3Cc4cc5c(cc4[C@H]1C23)OCO5 (some centres not stated)	inconclusive: 3.55 µM [inhibitor, partial curve, poor fit]
